Source: PubChem BioAssay AID493246 (Drosophila RNAi Screening Center, 2011)

Aim: 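Identify essential fly genes by loss of cell viability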 (primary screen)
Cell system: Drosophila Kc and S2R+ cells
Reagents: long dsRNA against Drosophila genes
Read-out: 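Cell number per well after knock-down, printed as raw plate values; calls were based on per-plate z-scores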
Reading the numbers: Kc cell number and S2R+ cell number: higher = more cells remaining
Active means: 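Active when the per-plate z-score of cell number is 3 or more in the direction of fewer cells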
The screen tested about 21,000 reagents; below is an unselected part of those with a known target gene and a result. In the full data, 429 (2%) were called active. 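Values are raw and not normalised between plates; calls rest on per-plate z-scores that were not deposited.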 Names joined by + are all predicted targets of the reagent. The record does not give: the amount of reagent, the time to read-out.

gene | amplicon | Kc cell number, rep 1 | Kc cell number, rep 2 | S2R+ cell number, rep 1 | S2R+ cell number, rep 2 | call
Nhe1 (Na[+]/H[+] hydrogen exchanger 1) | DRSC00762 | 1.24e6 | 1.18e6 | 7.81e5 | 6.84e5 | inactive
CCDC53 (Coiled-coil domain containing 53) | DRSC03056 | 1.57e6 | 1.63e6 | 1.14e6 | 1.30e6 | inactive
Ret (Ret oncogene) | DRSC03409 | 1.40e6 | 1.45e6 | 1.12e6 | 1.01e6 | inactive
Ret (Ret oncogene) | DRSC03410 | 1.78e6 | 1.86e6 | 1.28e6 | 3.05e5 | inactive
LanA (Laminin A) | DRSC11207 | 1.30e6 | 1.38e6 | 1.20e6 | 1.17e6 | inactive
CG32633 | DRSC18987 | 1.57e6 | 1.71e6 | 1.04e6 | 1.17e6 | inactive
CG31337 | DRSC12981 | 1.37e6 | 1.60e6 | 1.02e6 | 1.18e6 | inactive
CG3544 | DRSC00613 | 1.29e6 | 1.29e6 | 8.90e5 | 1.00e6 | inactive
Npc2f (Niemann-Pick type C-2f) | DRSC15980 | 1.54e6 | 1.57e6 | 1.16e6 | 1.19e6 | inactive
cic (capicua) | DRSC14276 | 1.43e6 | 1.43e6 | 7.21e5 | 8.22e5 | inactive
cic (capicua) | DRSC15708 | 1.11e6 | 1.04e6 | 7.03e5 | 7.75e5 | inactive
cic (capicua) | DRSC16918 | 1.53e6 | 1.48e6 | 1.01e6 | 1.12e6 | inactive
cic (capicua) | DRSC21243 | 1.39e6 | 1.45e6 | 9.40e5 | 1.04e6 | inactive
Arp10 (Actin-related protein 10) | DRSC19448 | 1.42e6 | 1.54e6 | 1.03e6 | 1.19e6 | inactive
spn-E (spindle E) | DRSC17064 | 1.46e6 | 1.54e6 | 1.23e6 | 1.33e6 | inactive
CG7707 | DRSC10903 | 1.66e6 | 1.87e6 | 1.37e6 | 1.43e6 | inactive
CG17768 + LSm-4 | DRSC02845 | 1.55e6 | 1.62e6 | 1.07e6 | 1.21e6 | inactive
CG17803 | DRSC15275 | 1.48e6 | 1.43e6 | 1.04e6 | 1.22e6 | inactive
shop (shopper) | DRSC20030 | 1.56e6 | 1.56e6 | 1.09e6 | 1.27e6 | inactive
CG32718 | DRSC17538 | 1.30e6 | 1.55e6 | 1.15e6 | 1.20e6 | inactive
Doc3 (Dorsocross3) | DRSC10480 | 1.36e6 | 1.32e6 | 1.24e6 | 1.30e6 | inactive
Nop60B (Nucleolar protein at 60B) | DRSC04627 | 1.26e6 | 1.32e6 | 1.12e6 | 1.22e6 | inactive
Mdr65 (Multi drug resistance 65) | DRSC11220 | 1.73e6 | 1.73e6 | 1.19e6 | 1.25e6 | inactive
MTF-1 (Metal response element-binding Transcription Factor-1) | DRSC08983 | 1.67e6 | 1.63e6 | 1.21e6 | 1.35e6 | inactive
MTF-1 (Metal response element-binding Transcription Factor-1) | DRSC11217 | 1.50e6 | 1.59e6 | 1.05e6 | 1.14e6 | inactive
lost | DRSC12002 | 1.41e6 | 1.47e6 | 1.12e6 | 1.31e6 | inactive
lost | DRSC12234 | 1.30e6 | 1.34e6 | 1.09e6 | 1.13e6 | inactive
CG4546 | DRSC15593 | 1.39e6 | 1.50e6 | 1.08e6 | 1.23e6 | inactive
RpL32 (Ribosomal protein L32) | DRSC16835 | 8.75e5 | 8.54e5 | 5.82e5 | 7.46e5 | active
CG14073 | DRSC10078 | 1.71e6 | 1.81e6 | 1.26e6 | 1.42e6 | inactive
CG15888 | DRSC15125 | 1.37e6 | 1.46e6 | 1.22e6 | 1.31e6 | inactive
Sodq (Sodesque) | DRSC15924 | 1.31e6 | 1.34e6 | 9.59e5 | 1.05e6 | inactive
Pcp (Pupal cuticle protein) | DRSC03395 | 1.52e6 | 1.37e6 | 1.15e6 | 1.30e6 | inactive
CG32036 | DRSC10362 | 1.42e6 | 1.46e6 | 1.26e6 | 1.04e6 | inactive
TTLL3B (Tubulin tyrosine ligase-like 3B) | DRSC02133 | 1.60e6 | 1.50e6 | 1.09e6 | 1.20e6 | inactive
loqs (loquacious) | DRSC02997 | 1.55e6 | 1.61e6 | 1.16e6 | 1.31e6 | inactive
CG17959 | DRSC18142 | 1.52e6 | 1.46e6 | 9.69e5 | 1.09e6 | inactive
CG2993 | DRSC14284 | 1.22e6 | 1.35e6 | 1.30e6 | 1.35e6 | inactive
CG2993 | DRSC15457 | 1.59e6 | 1.67e6 | 1.25e6 | 1.31e6 | inactive
CG15199 | DRSC19646 | 1.51e6 | 1.56e6 | 1.10e6 | 1.30e6 | inactive
CG11997 | DRSC14464 | 1.72e6 | 1.97e6 | 1.28e6 | 1.32e6 | inactive
CG15577 | DRSC18065 | 1.66e6 | 1.72e6 | 1.08e6 | 1.18e6 | inactive
arg (arginase) | DRSC18737 | 6.20e5 | – | 8.72e5 | – | inactive
px (plexus) | DRSC04708 | 1.02e6 | 1.12e6 | 6.24e5 | 7.13e5 | inactive
nAChRalpha3 (nicotinic Acetylcholine Receptor alpha3) | DRSC18800 | 1.49e6 | 1.42e6 | 1.07e6 | 1.15e6 | inactive
whe (what else) | DRSC20537 | 1.55e6 | 1.55e6 | 1.07e6 | 1.18e6 | inactive
CG12716 | DRSC19493 | 1.86e6 | 1.82e6 | 1.13e6 | 1.27e6 | inactive
CG15717 | DRSC19684 | 1.90e6 | 1.80e6 | 1.17e6 | 1.27e6 | inactive
Mer (Merlin) | DRSC20259 | 1.54e6 | 1.58e6 | 1.04e6 | 1.20e6 | inactive
LeuRS (Leucyl-tRNA synthetase) | DRSC00581 | 1.65e6 | 1.70e6 | 1.17e6 | 1.39e6 | inactive
Septin5 (Septin 5) | DRSC06843 | 1.31e6 | 1.44e6 | 1.04e6 | 1.13e6 | inactive
Jupiter | DRSC15204 | 1.58e6 | 1.69e6 | 1.14e6 | 1.23e6 | inactive
Jupiter | DRSC15205 | 1.41e6 | 1.34e6 | 1.27e6 | 1.34e6 | inactive
Jupiter | DRSC15389 | 1.44e6 | 1.46e6 | 1.18e6 | 1.30e6 | inactive
p-cup (presidents-cup) | DRSC19513 | 1.48e6 | 1.47e6 | 1.05e6 | 1.16e6 | inactive
CG15048 (retired record) | DRSC19624 | 1.63e6 | 1.60e6 | 1.20e6 | 1.34e6 | inactive
CG6901 | DRSC16129 | 1.41e6 | 1.54e6 | 1.16e6 | 1.30e6 | inactive
CG14207 | DRSC19562 | 1.65e6 | 1.69e6 | 1.04e6 | 1.23e6 | inactive
CG14207 | DRSC19563 | 1.70e6 | 1.66e6 | 1.10e6 | 1.33e6 | inactive

A run of entries from the list above:
gene | amplicon | Kc cell number, rep 1 | Kc cell number, rep 2 | S2R+ cell number, rep 1 | S2R+ cell number, rep 2 | call
CG2993 | DRSC15457 | 1.59e6 | 1.67e6 | 1.25e6 | 1.31e6 | inactive
CG15199 | DRSC19646 | 1.51e6 | 1.56e6 | 1.10e6 | 1.30e6 | inactive
CG11997 | DRSC14464 | 1.72e6 | 1.97e6 | 1.28e6 | 1.32e6 | inactive
CG15577 | DRSC18065 | 1.66e6 | 1.72e6 | 1.08e6 | 1.18e6 | inactive
arg (arginase) | DRSC18737 | 6.20e5 | – | 8.72e5 | – | inactive
px (plexus) | DRSC04708 | 1.02e6 | 1.12e6 | 6.24e5 | 7.13e5 | inactive
nAChRalpha3 (nicotinic Acetylcholine Receptor alpha3) | DRSC18800 | 1.49e6 | 1.42e6 | 1.07e6 | 1.15e6 | inactive
whe (what else) | DRSC20537 | 1.55e6 | 1.55e6 | 1.07e6 | 1.18e6 | inactive
CG12716 | DRSC19493 | 1.86e6 | 1.82e6 | 1.13e6 | 1.27e6 | inactive
